PubChem BioAssay AID686937 | Drosophila RNAi Screening Center | 2013
The screen tested about 23,000 reagents; shown is an unselected part of those that have a named target and a result. 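Reduced-secretion tags in replicate 1 do not always agree with the z-scores; no criterion for assigning the tags was given.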 No sequences are given here. Not stated in the record: the amount of reagent.

Test: 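Genes in the fly needed for secretion of protein constitutively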 (primary screen)
System: Drosophila S2 cells expressing secreted horseradish peroxidase
Knock-down reagent: long dsRNA against Drosophila genes
Duration: about 5.5 days (5 days dsRNA, then 12 h reporter induction)
Challenge: reporter expression induced after 5 days of dsRNA, read 12 h later; inducer not stated
Read-out: 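After 5 days of dsRNA and 12 h of reporter induction, medium peroxidase read by chemiluminescence and scored as per-plate z-score; higher values mean more reporter released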
Scale: z-score: higher = more reporter secreted into medium

Target gene	dsRNA	z-score, replicate 1	z-score, replicate 2	z-score, replicate 3	z-score, replicate 4	phenotype, replicate 1
CG13018	DRSC06274	0.23	0.43			
APP-BP1	DRSC10920	0.41	0.38			
lncRNA:CR9162	DRSC03151	0.28	0.1			
pyr	DRSC06319	0.36	0.2	0.31	0.3	
pyr	DRSC22520	0.62	0.69			
Arpc2	DRSC02113	0.25	0.15			
Cdk7	DRSC18451	-0.06	-0.2			
FIG4	DRSC00515	0.2	0.19			
Jhbp13	DRSC02913	0.12	0.44			
Anp	DRSC14112	0.33	0.39			
DCTN4-p62	DRSC06101	0.49	0.38			
Fkbp39	DRSC16667	-0.74	-0.49			
Btnd	DRSC18316	0.36	0.22			
Cpr72Eb	DRSC09870	0.08	0.4			
Aldh7A1	DRSC11083	0.29	0.33			
Nf-YB	DRSC02057	-0.82	-0.41			
strat	DRSC03069	0.42	0.59			
CG12123	DRSC17818	0.49	0.59			
CG18659	DRSC06784	-0.13	-0.08			
CG13427	DRSC06389	0.59	0.49			
tum	DRSC07575	-0.49	-0.34			
Dlic	DRSC19824	-0.2	0.34			
CG5539	DRSC04510	0.49	0.42			
Osi8	DRSC12277	0.24	0.49			
CG34124	DRSC00849	0.23	0.33			
CG33642	DRSC01325	0.57	0.25			
tyf	DRSC18382	0.38	0.7			
CG43689	DRSC18046	0.26	-0.34			
CG43689	DRSC18383	-0.55	-1.35			
CG43689	DRSC22467	0.89	0.21			
CG7246	DRSC18422	-2.61	-2.06			
Arr1	DRSC01867	0.48	0.45			
rdgB	DRSC20365	0.37	0.22			
Spn38F	DRSC03616	0.4	0.3			
run	DRSC20584	0.07	-0.49			
run	DRSC21515	0.45	-0.56			
CG11703	DRSC14356	0.24	0.25			
CG31886	DRSC03248	0.45	0.38			
eIF2alpha	DRSC20327	-1.5	-0.53			reduced secretion
pncr004:X (retired record)	DRSC19295	0.29	-0.48			
CG14424	DRSC18472	-0.1	-0.02			
Amyrel	DRSC05920	0.19	0.25			
Nnp-1	DRSC02165	0.22	-0.31			
Cyp4ad1	DRSC07369	0.32	0.31			
Nrx-IV	DRSC11238	0.34	0.2			
Arf4	DRSC17195	-5.2	-4.62			reduced secretion
Claspin	DRSC08308	0.76	0.6			
CG10418	DRSC09720	-0.31	-0.27			
Hsp60D	DRSC02543	0.74	0.43			
MED24	DRSC10944	-5.61	-4.5			reduced secretion
wwk	DRSC01941	0.06	0.49			
CG14985	DRSC08078	0.27	-0.3			
CG14985	DRSC08443	0.36	0.14			
CG5726	DRSC06946	0.19	0.31			
CG12609	DRSC19473	-0.08	0.43			
CG13310	DRSC09981	0.29	-1.14			
CG13404	DRSC19536	0.31	0.53			
CG14227	DRSC19584	-1.23	0.13			
slpr	DRSC18225	0.32	0.42			
RpLP0-like	DRSC06424	0.33	0.34			
ppk14	DRSC03238	0.11	-0.02			
CG15473	DRSC18056	0.31	0.42			
Arl6IP1	DRSC14231	0.11	-0.06			
CG3556	DRSC18309	0.25	0.12			
CG31496	DRSC12547	-1.15	-0.83			
Def	DRSC07398	0.41	0.3			
Rab39	DRSC17827	-0.32	-0.69			
Hmt4-20	DRSC18482	0.1	-0.25			
lncRNA:CR43632	DRSC13730	0.08	0.43			
CG9795	DRSC12336	0.67	0.57			
CG31717	DRSC01121	0.66	0.28			
CG9164	DRSC19087	-0.62	0.51			
CG9164	DRSC20162	0.27	0.39			
mAChR-B	DRSC16345	0.34	0.26			
CG10841	DRSC14271	0.26	0.32			
GlyT	DRSC04512	0.57	0.32			
CG8910	DRSC07414	0.35	-0.03			
CG4836	DRSC15659	0.26	0.37			
CG4836	DRSC22066	0.02	0.26			
Cyp6a22	DRSC07382	0.28	0.34			
CG42650	DRSC12462	0.03	0.28			
CR31958	DRSC00282	-0.01	0.17			
CR31958	DRSC21858	0.25	-0.08			

9 consecutive reagents from above, quoted:
Target gene	dsRNA	z-score, replicate 1	z-score, replicate 2	z-score, replicate 3	z-score, replicate 4	phenotype, replicate 1
CG10841	DRSC14271	0.26	0.32			
GlyT	DRSC04512	0.57	0.32			
CG8910	DRSC07414	0.35	-0.03			
CG4836	DRSC15659	0.26	0.37			
CG4836	DRSC22066	0.02	0.26			
Cyp6a22	DRSC07382	0.28	0.34			
CG42650	DRSC12462	0.03	0.28			
CR31958	DRSC00282	-0.01	0.17			
CR31958	DRSC21858	0.25	-0.08			
